Reference: PubChem BioAssay AID2718 (Broad Institute, 2010)
The campaign covered roughly 320,000 compounds. About 480 (0.15%) were called active. This list was built around the results that the source calls inconclusive (neither active nor inactive); the mix of calls is not that of the screen. Rule as the data show it: active = inhibition above about 26% (passing the limit was not always enough); inconclusive = no clear call, values can overlap the other calls.

Chains of the proteins cited; added tags and fusions are not shown. Lines headed by an entry give the natural chain unless they say otherwise; changes in a name come on top.
UniProt O15379: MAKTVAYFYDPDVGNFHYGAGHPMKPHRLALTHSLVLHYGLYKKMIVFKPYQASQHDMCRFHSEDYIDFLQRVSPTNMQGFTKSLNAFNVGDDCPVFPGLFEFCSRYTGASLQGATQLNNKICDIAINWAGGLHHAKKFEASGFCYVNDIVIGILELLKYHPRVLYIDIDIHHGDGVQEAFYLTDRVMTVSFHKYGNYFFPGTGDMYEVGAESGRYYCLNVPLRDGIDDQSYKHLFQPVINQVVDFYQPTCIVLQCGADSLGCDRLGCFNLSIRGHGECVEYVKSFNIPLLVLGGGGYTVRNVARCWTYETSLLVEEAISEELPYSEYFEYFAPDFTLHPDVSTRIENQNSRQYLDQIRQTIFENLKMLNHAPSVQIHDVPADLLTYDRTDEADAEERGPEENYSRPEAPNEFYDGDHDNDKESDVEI

These compounds were tested against Histone deacetylase 3 (Homo sapiens) (UniProt O15379) (assay: HDAC3 deacetylase inhibitors, primary screen, biochemical, fluorescence, cell-free homogeneous (AID 2718)). Settings: recombinant HDAC3, fluorogenic peptide/trypsin coupled, at 8.3 µM, active compounds read high.

| SMILES | inhibition |
| --- | --- |
| COc1ccc(C(=O)NC(=O)Nc2ncccc2C)cc1 | inconclusive: 18.7% |
| COc1cc(S(=O)(=O)Nc2ccc(C)cc2)ccc1N=Cc1c(C)c(C#N)c(=O)n(C)c1O | inconclusive: 16.4% |
| CC(C)CNC(=S)N1CCC(Cc2ccccc2)CC1 | inconclusive: 13% |
| CC1CN(C(=O)c2cc(S(=O)(=O)N3CCCCC3)ccc2Cl)CC(C)O1 (stereo not given) | inconclusive: 21.7% |
| Cc1ccsc1/C=c1\sc2ncnn2c1=O | inconclusive: 13.4% |
| O=C(Nc1ccc(F)cc1)N1CCC(c2nc3c(nnn3Cc3ccccc3Cl)c(=O)[nH]2)CC1 | inconclusive: 19.8% |
| Cc1cc(C)c2nc(-c3cccc(Cl)c3)c(C)c(C(=O)N3CCOCC3)c2c1 | inactive: 8.57% |
| Cc1ccc(NC(=S)Nc2ccc(F)cc2)cc1 | inconclusive: 16.6% |
| O=C(c1cc(COc2cccc(C(F)(F)F)c2)on1)N1CCC(Oc2cccnc2)CC1 | inconclusive: 18.7% |
| COc1ccc(CN(C(=O)CNC(=O)c2ccco2)C(C(=O)NCC2CCCO2)c2ccc(OC)c(OC)c2)cc1 (stereo not given) | inconclusive: 13.8% |
| COc1ccc(OC)c(S(=O)(=O)N2CCCC(C(=O)N3CCOCC3)C2)c1 (stereo not given) | inactive: -8.03% |
| O=C(CN1C(=O)S/C(=C\c2cccc(Cl)c2)C1=O)NC1C=CS(=O)(=O)C1 (stereo not given) | inconclusive: 13.8% |
| CCCC(C(=O)NC1CCCC1)N(Cc1ccc(F)cc1)C(=O)c1snc(C(N)=O)c1N (stereo not given) | inconclusive: 14.9% |
| CCN(c1ccccc1)S(=O)(=O)c1ccc(OC)c(NC(=O)CNCC(C)O)c1 (stereo not given) | inconclusive: 26.3% |
| CCN(C(=O)c1cc2c(=O)n3cccc(C)c3nc2n1CCCOC)C1CCCCC1 | inactive: -9.07% |
| Cc1cc(C)cc(N(C(=O)c2snc(C(N)=O)c2N)C(C(=O)NCC2CCCO2)c2ccc(C)o2)c1 (stereo not given) | inconclusive: 15.9% |
| COc1ccc(-c2cc(C(F)(F)F)nc(SCCC(=O)NCc3ccccc3)n2)cc1 | inconclusive: 27.5% |
| CCC(=O)Nc1ccc(NCc2ccc(-c3ccccc3)cc2)cc1 | inconclusive: 10.6% |
| Cc1csc(NC(=O)c2sccc2C)n1 | inconclusive: 25.9% |
| Cc1ccc(C(=O)NNC(=O)c2ccncc2)cc1S(=O)(=O)N1CCOCC1 | inconclusive: 16.9% |
| O=C(O)CSc1c[nH]c2ccccc12 | inactive: -4.85% |
| CC(C)c1nnc(SCC(=O)NCc2ccco2)n1C | inconclusive: 22.7% |

| SMILES | inhibition |
| --- | --- |
| N/C(=N\OC(=O)c1csnn1)c1ccc(C(F)(F)F)cc1 | inconclusive: 12.1% |
| O=C(O)CCCC(=O)Nc1cccc(C(=O)Nc2ccccc2C(=O)O)c1 | inconclusive: 18.5% |
| O=C(O)c1cccc(-n2sc3ccccc3c2=O)c1 | inconclusive: 16.7% |
| COc1cccc(-c2csc(N3CCN(C(=O)Nc4ccccc4OC)CC3)n2)c1 | inconclusive: 21.2% |
| O=C(CCC(=O)N1CCN(Cc2ccc(F)cc2)CC1)Nc1nnc(C2CCCCC2)s1 | inconclusive: 14.5% |
| O=C(Nc1cc(NC(=O)c2ccccc2F)ccc1Cl)c1ccccc1 | inactive: 6.94% |
| COc1ccc(NC(=O)c2ccc(Cl)nc2)cc1S(=O)(=O)N1CCCCC1 | inactive: 3.96% |
| Cc1cnc(N2C(=O)c3ccc([N+](=O)[O-])cc3C2=O)s1 | inconclusive: 14.2% |
| CCn1c(O)c(N=NC(=O)CNC(=O)c2ccccc2F)c2ccccc21 | inconclusive: 15.1% |
| Cc1cc(-c2nnc(SCC(=O)c3ccc4c(c3)OCCO4)o2)no1 | inconclusive: 29.4% |
| COc1ccc(CCNC(=O)c2cc(-c3cc(C)ccc3O)n[nH]2)cc1OC | inconclusive: 26.4% |
| CCOc1ccc(Oc2c(/C=N/NC(=O)COc3ccccc3OC)c(C)nn2-c2ccccc2)cc1 | active: 27.5% |
| Cc1ccc(S(=O)(=O)N2CCCCC2)cc1NC(=O)CNC(C)c1ccc(Cl)c(Cl)c1 (stereo not given) | inactive: 11.9% |
| Cc1ccc(Nc2nnc(SCC(=O)c3ccc(Br)s3)s2)c(C)c1 | inactive: 3.26% |
| O=[N+]([O-])c1cc(F)c(N2CCCCC2)cc1N1CCOCC1 | inconclusive: 29.2% |
| CCC(C)(C)NC(=O)c1cc(S(=O)(=O)N2CCCCC2)ccc1N1CCOCC1 | inconclusive: 17.7% |
| CSc1nc(C)c(CCO)c(=O)[nH]1 | inconclusive: 12.8% |
| CSCCC(Nc1ccc(S(=O)(=O)N2CCOCC2)cc1[N+](=O)[O-])C(=O)OCC(=O)NCC(C)C (stereo not given) | inconclusive: 17.7% |
| O=C1C(=O)N(CCCN2CCOCC2)C(c2ccc(Cl)cc2)/C1=C(\O)c1ccc2c(c1)OCCO2 (stereo not given) | inconclusive: 19.8% |
| O=C1/C(=C/c2ccccn2)SC(=S)N1c1ccc(O)cc1 | inactive: -14% |
| Cc1[nH]c2ccccc2c1C(=O)CSc1ccc(Cl)cc1 | inconclusive: 22.3% |
| COc1ccc(-c2ncc(CN3CCN(CCC(C)C)C(CCO)C3)cn2)cc1 (stereo not given) | inactive: 0.713% |

Of the compounds above, these contain a nitro group on carbon.

| SMILES | inhibition |
| --- | --- |
| Cc1cnc(N2C(=O)c3ccc([N+](=O)[O-])cc3C2=O)s1 | inconclusive: 14.2% |
| O=[N+]([O-])c1cc(F)c(N2CCCCC2)cc1N1CCOCC1 | inconclusive: 29.2% |
| CSCCC(Nc1ccc(S(=O)(=O)N2CCOCC2)cc1[N+](=O)[O-])C(=O)OCC(=O)NCC(C)C (stereo not given) | inconclusive: 17.7% |

Continued:

| SMILES | inhibition |
| --- | --- |
| Cc1onc(-c2ccccc2Cl)c1C(=O)NCCN1Cc2ccccc2C1=O | inconclusive: 21.9% |
| O=C(CSc1nnc(SCc2cccc3ccccc23)s1)c1ccc2c(c1)OCO2 | active: 37.5% |
| Cc1cccc(N2CCN(C(=O)c3cccc(N4C(=O)C5CC=CC(C)C5C4=O)c3)CC2)c1C (stereo not given) | inactive: 4.44% |
| CC(C)n1c(=S)[nH]c2ccccc2c1=O | inconclusive: 22.4% |
| Cc1cccc(C(C)C)c1NC(=O)C1CN(S(=O)(=O)c2ccccc2)CCN1S(=O)(=O)c1ccccc1 (stereo not given) | inconclusive: 24.7% |
| CC(C)(Oc1ccc(CCNC(=O)c2ccc(-c3ccc(Cl)cc3)o2)cc1)C(=O)O | inconclusive: 15.2% |
| COc1ccc(CNC(=S)N/N=C/c2ccc(O)c(OC)c2)cc1 | inconclusive: 21% |
| CC(=O)Nc1ccc(NCN2C(=O)C3C4CCC(C4)C3C2=O)cc1 (stereo not given) | inactive: -1.97% |
| COCc1cc(C)nc(SCC(=O)Nc2ccc(N3CCOCC3)cc2)c1C#N | inconclusive: 16.6% |
| COc1ccc(C(=O)NC(=O)COC(=O)c2ccc3ncsc3c2)cc1 | inactive: -1.87% |
| NN(Cc1ccccc1)C(=S)Nc1ccc(Cl)c(Cl)c1 | inconclusive: 27.6% |
| COc1ccccc1CNS(=O)(=O)c1cc2c3c(c1)C(C)C(=O)N3CCC2 (stereo not given) | inconclusive: 23% |
| CCSc1nc2c(sc3ccccc32)c(=O)n1C(C)C | inconclusive: 17.7% |
| CCN(CC)c1ccc(/C=c2\sc3nnc(-c4ccccc4Cl)n3c2=O)cc1 | inconclusive: 21.6% |
| COc1cc2c(cc1OC)[C@@H]1Cc3cc4c(cc3[C@H](C2)N1C)OCO4 | active: 33.9% |
| O=C(Cn1cnc([N+](=O)[O-])c1)Nc1cc(Oc2ccc(Cl)cc2Cl)cc([N+](=O)[O-])c1 | inconclusive: 23.2% |
| CCN(CC)CCNC(=O)c1ccc(NC(=O)c2cn(-c3ccccc3)nc2-c2cccs2)cc1 | inactive: 3.39% |
| Cc1cc(F)ccc1S(=O)(=O)N1CCC2(CC1)OCCN2S(=O)(=O)c1cccs1 | inconclusive: 21.9% |
| O=C(COC(=O)c1cc[n+]([O-])cc1)Nc1ccc(Cl)c(C(F)(F)F)c1 | inactive: -1.85% |
| Cc1cccc(N2CC(C(=O)Nc3ccc(N4CCOCC4)cc3)CC2=O)c1C (stereo not given) | inactive: -0.425% |
| CN(CC(=O)Nc1ccc(N2CCOCC2)cc1)C(=O)CSc1ccccc1F | inconclusive: 15.7% |
| O=C(NCCS(=O)(=O)N1CCN(Cc2ccccc2)CC1)c1ccccc1 | inconclusive: 16.8% |

| SMILES | inhibition |
| --- | --- |
| COc1ccc(C(=O)O/N=C(/c2ccccc2)c2ccncc2)cc1 | active: 44.4% |
| c1ccc(-c2nc(NCc3ccco3)c3ccccc3n2)nc1 | inconclusive: 20.6% |
| CCN(CC(=O)Nc1ccc(OC)cc1)C(=O)c1cc([N+](=O)[O-])ccc1N1CCOCC1 | inactive: 5.44% |
| Nc1nc(-c2ccco2)nn1C(=O)c1ccc(Cl)cc1 | inconclusive: 31% |
| COC(=O)C1=C(C)OC(N)=C(C#N)C1c1cc(OC)ccc1OC (stereo not given) | inconclusive: 17.7% |
| CCN(CC(=O)Nc1c(F)cccc1F)C(=O)C1CC1 | inactive: -3.58% |
| O=S(=O)(N/N=C/c1ccc(N2CCOCC2)cc1)c1ccccc1 | inactive: 3% |
| C#CCOCCOCCOCCNc1nc(N2CCN(C(=O)CCCCCCCCCCNC(=O)[C@H](CCCN=C(N)N)n3cc(C[C@@H](C)CC)nn3)CC2)nc(N2CCN(C(=O)CCCCCCCCCCNC(=O)[C@@H]([C@H](C)CC)n3cc(CCCCCN)nn3)CC2)n1 | active: 32.6% |
| CNc1ccccc1-n1ccc(-c2ccccc2)n1 | inactive: 3.81% |
| CC(C)(C)C(=O)Nc1ccc(S(=O)(=O)N2CCCC2)cc1 | inactive: 0.953% |
| CC1=CC(C)(C)Nc2ccc(OS(=O)(=O)c3ccc(C)cc3)cc21 | inconclusive: 17% |
| O=c1oc2ccccc2c(O)c1Cc1cc(Cl)c2cccnc2c1O | inactive: -1.12% |
| O=C(NCCC1=CCCCC1)c1ccc([N+](=O)[O-])cc1 | inactive: 2.48% |
| CC(C)(C)c1cc(C(=O)NNC(=O)Nc2cccc(Cl)c2)n(Cc2ccccc2)n1 | inconclusive: 24.6% |
| Cc1ccc(-c2nnc3c(C(F)(F)F)nc4ccccc4n23)cc1 | inconclusive: 7.94% |
| CN1CCN(P(=O)(c2ccccc2)c2nc3ccccc3s2)CC1 (stereo not given) | inconclusive: 22.8% |
| CC(C)(C)c1ccccc1OCC(=O)NCCC(=O)O | inconclusive: 13.9% |
| CCOc1cccc(/C=C/c2cc(C(=O)O)c3ccccc3n2)c1OC | inactive: 7.62% |
| CC(=O)c1cc2c(cc1NC(=O)CN1CCCCCCC1)OCO2 | inconclusive: 21.7% |
